Results from article PMC5838229.
Results are given in words; binding and its absence hold for the method and conditions named. Binding seen in cells or lysates may run through a third protein. Some entries that bind do so weakly or less than the wild type. For part of these data: Where a sequence is shown, tags or fusion partners need not be part of it.

Amino acid sequences for entries named in this document (tags omitted).
UniProt P11142: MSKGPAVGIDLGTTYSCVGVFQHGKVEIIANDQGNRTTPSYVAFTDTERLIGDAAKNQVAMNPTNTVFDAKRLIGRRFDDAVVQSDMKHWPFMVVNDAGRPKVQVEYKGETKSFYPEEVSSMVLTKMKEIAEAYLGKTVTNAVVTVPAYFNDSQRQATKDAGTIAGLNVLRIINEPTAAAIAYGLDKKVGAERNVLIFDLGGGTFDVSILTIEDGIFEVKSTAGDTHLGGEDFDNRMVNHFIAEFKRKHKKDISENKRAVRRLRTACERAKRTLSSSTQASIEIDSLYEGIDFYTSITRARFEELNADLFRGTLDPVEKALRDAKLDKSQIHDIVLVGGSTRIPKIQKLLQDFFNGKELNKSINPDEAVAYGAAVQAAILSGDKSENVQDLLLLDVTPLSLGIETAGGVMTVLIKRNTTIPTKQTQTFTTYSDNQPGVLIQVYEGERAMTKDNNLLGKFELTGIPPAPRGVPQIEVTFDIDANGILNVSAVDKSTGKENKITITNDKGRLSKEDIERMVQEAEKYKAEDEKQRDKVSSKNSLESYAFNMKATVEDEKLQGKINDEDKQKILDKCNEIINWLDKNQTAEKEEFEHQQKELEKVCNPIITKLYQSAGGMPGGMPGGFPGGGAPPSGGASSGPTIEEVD

Key:
[1] = target: T1, Flag-tagged USP19, wild type, full length (USP19 isoform 1) (UniProt O94966); assay: co-IP; HEK293T cells transfected with Flag-tagged USP19 variants; lysis in 1% CHAPS, 30 mM Tris/HCl pH 7.4, 150 mM potassium acetate, 4 mM magnesium acetate, 1 mM DTT; Flag M2 beads; immunoblotting; empty vector as negative control
T1 sequence: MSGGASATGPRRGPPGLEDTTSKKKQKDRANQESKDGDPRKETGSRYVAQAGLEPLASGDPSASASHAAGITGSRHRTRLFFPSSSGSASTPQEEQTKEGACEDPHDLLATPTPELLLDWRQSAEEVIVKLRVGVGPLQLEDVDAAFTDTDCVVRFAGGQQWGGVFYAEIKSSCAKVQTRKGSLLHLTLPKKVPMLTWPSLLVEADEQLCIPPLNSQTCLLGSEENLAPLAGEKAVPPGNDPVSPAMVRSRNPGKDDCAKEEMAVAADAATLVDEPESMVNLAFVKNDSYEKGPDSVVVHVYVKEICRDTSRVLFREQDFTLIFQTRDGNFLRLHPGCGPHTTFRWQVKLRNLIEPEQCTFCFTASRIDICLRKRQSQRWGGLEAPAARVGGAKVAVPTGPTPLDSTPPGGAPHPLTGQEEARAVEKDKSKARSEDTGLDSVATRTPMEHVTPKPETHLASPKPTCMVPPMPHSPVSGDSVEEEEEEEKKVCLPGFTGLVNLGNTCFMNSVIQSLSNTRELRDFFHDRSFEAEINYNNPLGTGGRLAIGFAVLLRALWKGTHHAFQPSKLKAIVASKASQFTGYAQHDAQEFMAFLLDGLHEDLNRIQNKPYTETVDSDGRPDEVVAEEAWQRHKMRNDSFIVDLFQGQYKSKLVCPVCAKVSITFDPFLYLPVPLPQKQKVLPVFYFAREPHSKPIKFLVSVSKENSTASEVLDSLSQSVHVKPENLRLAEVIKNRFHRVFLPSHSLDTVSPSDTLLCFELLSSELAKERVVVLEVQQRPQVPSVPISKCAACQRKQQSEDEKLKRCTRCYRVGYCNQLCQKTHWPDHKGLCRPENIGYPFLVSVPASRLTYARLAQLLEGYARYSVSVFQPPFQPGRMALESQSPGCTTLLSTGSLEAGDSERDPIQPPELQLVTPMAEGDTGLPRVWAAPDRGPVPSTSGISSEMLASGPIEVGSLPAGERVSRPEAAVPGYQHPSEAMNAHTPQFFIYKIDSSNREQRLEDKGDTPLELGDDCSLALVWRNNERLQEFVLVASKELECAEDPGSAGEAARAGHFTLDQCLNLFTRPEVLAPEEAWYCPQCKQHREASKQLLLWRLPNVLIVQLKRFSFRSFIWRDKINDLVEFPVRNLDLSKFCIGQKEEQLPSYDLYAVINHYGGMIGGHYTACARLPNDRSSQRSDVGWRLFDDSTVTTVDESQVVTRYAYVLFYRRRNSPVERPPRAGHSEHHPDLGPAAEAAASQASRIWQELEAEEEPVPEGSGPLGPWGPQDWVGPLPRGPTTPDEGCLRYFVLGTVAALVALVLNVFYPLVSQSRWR

[2] = target: T2, USP19 CT ∆UI (490-680 and 1058-1318) (UniProt O94966); assay: as above
T2 sequence: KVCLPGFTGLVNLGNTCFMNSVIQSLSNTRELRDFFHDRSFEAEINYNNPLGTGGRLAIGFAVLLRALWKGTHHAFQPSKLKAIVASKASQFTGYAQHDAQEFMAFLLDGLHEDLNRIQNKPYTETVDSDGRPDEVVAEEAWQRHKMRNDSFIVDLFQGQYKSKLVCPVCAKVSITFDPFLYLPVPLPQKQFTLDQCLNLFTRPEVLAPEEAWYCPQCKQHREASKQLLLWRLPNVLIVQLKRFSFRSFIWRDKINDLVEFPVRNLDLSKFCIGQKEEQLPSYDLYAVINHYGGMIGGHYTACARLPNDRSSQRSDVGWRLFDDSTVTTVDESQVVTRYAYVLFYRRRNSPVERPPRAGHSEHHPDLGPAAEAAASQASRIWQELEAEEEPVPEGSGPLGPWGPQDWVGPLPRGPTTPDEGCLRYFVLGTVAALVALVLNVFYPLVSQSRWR

[3] = target: T3, endogenous USP19 (human (endogenous in HEK293T)) (UniProt O94966); assay: co-IP; endogenous proteins; cell extracts incubated with affinity-purified USP19 antibodies immobilized on protein A beads; USP19 null CRISPR cells as negative control; immunoblotting
T3 sequence: T1 sequence

Measured: binding

endogenous HSC70 (from UniProt P11142 1-646)
binds: all assays above
